{"source": "patent EP2222702B1", "about": "“HUMAN […] SPECIFIC ANTIBODIES” (Cytos Biotechnology AG, priority 2007, dated 2009)", "tested_on": "human monoclonal nicotine-specific antibody IgG2-F018 (HCVR SEQ ID NO:24, LCVR SEQ ID NO:26)", "experiment": "Equilibrium dialysis, affinity and competition", "type": "binding", "details": "56 nM tritium-labeled (S)-(-)-nicotine, IgG2-F018 50 nM, unlabeled compound 1 nM to 100 µM; acetylcholine even at a 4000 fold molar excess", "method": "Figure 1. Specificity of IgG2-F018. The binding of tritium-labeled (-)-nicotine (56 nM) to IgG2-F018 (50 nM) was measured by equilibrium dialysis in the presence of increasing concentrations of unlabeled (-)-nicotine, (-)-cotinine or acetylcholine. Averages of two independent experiments are given with standard deviation.\nAffinity of antibodies for (S)-(-)-nicotine was determined by equilibrium dialysis using a DispoEquilibriumDialyzer (Harvard Biosciences). Two chambers of the dialyzer were separated by a membrane (10'000 Da cut-off). […] Concentrations of tritium-labeled (S)-(-)-nicotine (Amersham) ranging from 3 to 444 nM were used. Equilibrium dialysis was allowed to proceed for 48-72 h. Aliquots from both sides of the chamber were taken and radioactivity measured in a scintillation counter. Radioactivity corresponding to antibody-bound (S)-(-)-nicotine was calculated by subtracting the radioactivity measured for the chamber containing no antibody from the one containing the antibody. The free (S)-(-)-nicotine concentration was determined from the radioactivity measured for the chamber containing no antibody. The equilibrium dissociation constant (Kd) was derived from the fit of a one-site binding model to the measured bound radioactivity as a function of the free (S)-(-)-nicotine concentration. […]", "note": "At least one structure is not confirmed: it was looked up by name or label, or the drawing left a doubt."}
{"compound": "CC(=O)OCC[N+](C)(C)C", "note": "[acetylcholine]", "values": [{"measurement": "Cross-reactivity: competition with tritium-labeled (S)-(-)-nicotine for binding to IgG2-F018", "result": "did not interfere"}]}
